We go through 150 substances from the supplement of paper PMC5949888.

Most values lie at the floor of the assay. Slopes are relative: functional sequences can read slightly below zero.

For this series, the system named is Saccharomyces cerevisiae PS128 hsf1 delta, HSF1(1-493) fusion. The series is described as follows: growth estimate (transactivation domain function in HSF1 fusion, heat-shock survival) (a.u. (slope of normalised read count over time)); higher = stronger growth at 37°C, i.e. more transactivation activity. The settings on record: library: random library. As for the experimental part:
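Random 60-nt DNA library encoding peptides of up to 20 aa, fused to the C-terminus of yeast HSF1 residues 1-493 (C-terminal TAD deleted) and expressed from the native HSF1 promoter on a CEN plasmid in hsf1-deleted S. cerevisiae PS128. Cells were selected at 37°C on -trp 5-FOA plates for 0, 2, 4, 6 and 8 days and amplicons were sequenced. Growth estimate is the slope of a robust linear fit of total-sum-normalised read counts (normalised to the first time point) over time, using at least 2 replicates. Sequences are classed functional (TAD activity) above a threshold of -0.13, set from stop-codon control sequences.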
For the substance LSEPVATEGVRYA, the growth estimate is less than -0.25. The result for QVYRSGGLTTDRRFVMRRWM reads less than -0.25; that for ESRIY, less than -0.25. The value for MGKSSTPGRASRTSSCHRAH was less than -0.25; that for RGAGISTPSASKVLSSYNGK was less than -0.25. As to CLRGRAASQSCQ, the growth estimate is less than -0.25. The result for YDTCPTHMVEQVGQHTHRGA reads less than -0.25; that for GCIQTWEQQATSLKVGPSGR, less than -0.25; that for CMGSGLPCSGRFMIPSHKHG, less than -0.25. The result for SLVGMARLQGPRPACHYCMP reads less than -0.25.

Take FCLVIGIREYIMG: the growth estimate is less than -0.25.

For the substance SWC, the growth estimate was less than -0.25. The result for PSRGSRFGGRFETPGWDTLC reads less than -0.25; that for GMYWVDIYKTRPESGATRER, -0.246. The result for RSINTTKPLVRSNIENSRDW reads less than -0.25; that for CADVLWPCRPCSHC, less than -0.25. The value for GEVIRGDHSRIFTVVAALNR was less than -0.25; that for RSKSC was less than -0.25; that for PVSTQIAPFPGDMRSAVTEG was less than -0.25. As to KHGPKVKSSAPARFDTVGLL, the growth estimate was less than -0.25. Consider RNWWLI, for which the growth estimate was less than -0.25. As to ASIATWRIFMEGQGRRV, the growth estimate is less than -0.25. The value for FSAIPS was less than -0.25; that for FTGRA was less than -0.25.

Take TFVD: the growth estimate was less than -0.25. Turning to LQHRHLARRRCGYGSLDTST, the growth estimate is less than -0.25. The value for LGYGLHGSYSLRENIWAHAC was less than -0.25; that for PSTLPLFFL was less than -0.25.

Turning to RAIQ, the growth estimate is less than -0.25. The result for GNGRSYGPLTIQAL reads less than -0.25. The result for WSDDRPTHRSHSYPWGIRGP reads less than -0.25; that for FAFCLSFLPFYFPIPDKVYD, less than -0.25. For the substance ETRARRGGILQYLNWSFRLS, the growth estimate is less than -0.25.

In the case of GRELPAIGIQLLVRAASETV, the growth estimate is less than -0.25. As to KSRAKRSLVWQIVNGSFVVS, the growth estimate is -0.25. With VMAGLSIKVTRRSPCFRAAL, the growth estimate was less than -0.25.

Consider LTVNVGLVSDGRIFRREARP, for which the growth estimate was less than -0.25.

As for VSSRTSEEIPISRGLVLWAP, the growth estimate is less than -0.25. The result for LARWGTPNRTRMPSRTPIRA reads less than -0.25; that for VMDR, less than -0.25. The result for LSPSRLFS reads less than -0.25. The value for RVTKGRRLTTTTPRLFMVDR was less than -0.25; that for TQNYLPTWA was less than -0.25; that for SILPTSTA was less than -0.25. NGHTTHYGIRLLLRQATPRV: the growth estimate is less than -0.25. The value for LREN was less than -0.25; that for ARDFADSL was less than -0.25; that for RDPTKHGYRKLASDVQAGSL was less than -0.25.

On to VVFAGHKGRPLCDRLVYVAS, for which the growth estimate is less than -0.25. The value for VFPAITSNPQSEPGSAKLA was less than -0.25; that for ESDCTSFL was -0.246. As for GPGAENPYV, the growth estimate was less than -0.25. The result for RLARSASGGYERSGRNQRQG reads less than -0.25; that for RGRYTL, less than -0.25; that for SILTGCPRKGTPWIKLILTH, -0.245. The value for KFTNS was less than -0.25; that for SLKGNISTSQIWRLQRLV was less than -0.25.

KRPA: the growth estimate is less than -0.25. As to VTDIRLTESIRSCVTKSLRT, the growth estimate is less than -0.25.

As for RCPDQVSYSWEQLVRPMNPL, the growth estimate was less than -0.25.

Consider GQRGLTMISIGLTERNPSLC, for which the growth estimate is less than -0.25.

As for PSSVLSVTLNLTDC, the growth estimate was less than -0.25. The value for RFDGLWFRYRPRFPLTRRVK was -0.0337; that for AINC was less than -0.25; that for PLVYYQSGPNEILSAFIEP was -0.206. The result for APRRKKRIYGPGDIDVPVPE reads less than -0.25; that for RSRIHFGL, less than -0.25; that for LKPTAATNGPNMLRITVKRW, less than -0.25. The value for LVK was less than -0.25; that for ITKSAVS was less than -0.25; that for QKDTGASSSVIRSTNLMRCA was less than -0.25.

For MAGYCRLAALGDSGASPDSA, the growth estimate was less than -0.25. The value for YLPTCSTP was less than -0.25; that for ASCRGPRRAPKMGPASLCHR was less than -0.25; that for TCITCYQPRKLVKHY was less than -0.25. The value for ARINRPARGSIALPGLC was less than -0.25; that for RLPEFRAAANRAQTRNV was less than -0.25; that for IPPSPLRLSKSLVMSFYLGE was less than -0.25. The value for ASADPLP was less than -0.25; that for GSSPVILYKFVAPHWKYSTA was less than -0.25. Regarding VLTFFRGIAKWGRRLSQGPW, the growth estimate is less than -0.25.

In the case of FMVLRGRLGESLRCWQIV, the growth estimate is less than -0.25. For the substance ILS, the growth estimate was less than -0.253. The result for DSHPPLRSPENKHGSVQSTL reads less than -0.25.

Regarding LLKGEGKPAKNRYISFVIPV, the growth estimate is less than -0.25.

On to EGLCFAYPWTSFEIGNTDCC, for which the growth estimate is less than -0.25. The result for AAFK reads less than -0.25; that for ALGCVMRLKGRRRWFRDALG, less than -0.25; that for RPPLTSYLWCVGITGYGPTR, less than -0.25.

Turning to NIRPVSSARA, the growth estimate is less than -0.25. The value for VVGSVSKNIKLMFDRTVPAP was less than -0.25. The result for LRSLRKV reads less than -0.25. Regarding GTPLTKPAIRAKRTGSGQYN, the growth estimate is 0.218. The value for HGYLGTPEPVARPQRELTPR was less than -0.25. The value for RCDSAPPIPVWFLSGRIRSM was less than -0.25; that for HLENVIITVHV was -0.246. The result for VGATDLCSCGPLEAVEFA reads less than -0.25. On to LLPLG, for which the growth estimate is less than -0.25. The value for PDLRGARPFRLFD was less than -0.25; that for RPASLLHGLKLQIVVISVNA was less than -0.25; that for RGVGLN was less than -0.25. The result for LSAECMGLFL reads -0.142; that for GLIHSDKFTRTHGSGFVASW, less than -0.25. For the substance DVSTRPGYQIPERVGRCGER, the growth estimate was less than -0.25. The value for IGLRESITNRSCFRLQL was less than -0.25. The value for CVC was less than -0.25; that for RYGLSVDPACPGSTCCFNSV was less than -0.25; that for RIHTFRFSDGAGDFRVVA was less than -0.25. The result for LGIDQMFRQS reads less than -0.25. As to SHHRG, the growth estimate is less than -0.25. For the substance GGYISRLQYDTSDQH, the growth estimate is less than -0.25.

Regarding ASQGVCHRPAP, the growth estimate is less than -0.25. The value for RREQTGTYLASFARQPGHLG was less than -0.25; that for AQRELAQELLGRRNLLTLFD was less than -0.25; that for LGLKGL was less than -0.25. The result for QVRVEETTKFKECKWPGFGA reads less than -0.25; that for PKTGNYHVDKPGTEPMVP, less than -0.25. The result for RGLRASDC reads less than -0.25; that for LRKDAIQPF, less than -0.25.

As for GRWAPTL, the growth estimate was less than -0.25.

As to PVVKAGTGTRHPPPFLHHAF, the growth estimate was less than -0.25. The value for TFNSGKIAWIYVFSVSPRVR was less than -0.25; that for PAIRGVQRILGTDSS was less than -0.25; that for KQYISRLTAAGESIEARLVA was less than -0.25.

YDGGGTCHWSEHSAPDSSGL: the growth estimate was less than -0.25. The result for SRDRHCDDLRGLKVWGRSPH reads less than -0.25; that for GAGSACLELSGDRAYAVELM, less than -0.25; that for EHTPSSASLVAVLAGFPQAA, less than -0.25.

In the case of SHVHLRQGLAEIVAAFVTAF, the growth estimate is less than -0.25. The result for VDARAIPHWAR reads less than -0.25; that for FTPFLFRCYSGRFNDCPRRR, less than -0.25; that for TLGHRSPAATNR, less than -0.25. The value for LSYSGMGPRRYLYLVNEQCT was less than -0.25. The result for SYLNWGVW reads less than -0.25; that for LEPYVWACYKIRSAEHVDCL, less than -0.25; that for RVALRCKPSNVHRRDSAAVT, less than -0.25.

On to ATSY, for which the growth estimate was less than -0.25. The result for GGLGNFSLSESIGLSGSELA reads less than -0.25; that for ALLE, less than -0.25. The value for RPAIQFVRIVI was less than -0.25; that for LGRAEDHIEKFNAP was less than -0.25; that for NYEITFNGHGLAKKLVSVVA was less than -0.25. The result for GWCLQSVQAVPLRLALSKTQ reads less than -0.25; that for NVLG, less than -0.25; that for LGVLRRDVIGNLRSPNKHYY, less than -0.25.

Regarding AQLTSVAGEYYSTSGHHCER, the growth estimate was less than -0.25. The value for FCGHIPHLIIDVHPETGSRA was less than -0.25; that for RQEKHGSSRREWRILRDKAK was less than -0.25. The result for WTCKTSASAGKPFWDVSVRL reads less than -0.25.

Consider STENL, for which the growth estimate was less than -0.25.
